Read-outs that look alike come from different tables or passages of the source.
Tested on: CFU-GM, BFU-E and CFU-GEMM progenitor cells
Settings: 80 μg/kg s.c.
Description: Five healthy human volunteers having initial white blood cell counts of 4,500-7,500 cells/mm^3 were used in the study. […] Blood samples were obtained via catheter prior to the dose, and at various times up to 24 hours after dosing.
All progenitor cell results are based on the scoring of 3 culture plates per assay per point.
For the progenitor cell numbers and cycling status, the numbers of CFU-GM, BFU-E and CFU-GEMM in methylcellulose cultures by stimulation of the cells with 1 Unit (U)/ml recombinant human (rhu) erythropoietin, 100 U/ml rhu granulocyte-macrophage colony stimulating factor (GM-CSF), 100 U/ml rhu interleukin-3 (IL-3) and 50 ng/ml rhu steel factor (SLF=stem cell factor (SCF)). The CFU-GM were also evaluated in agar cultures stimulated with 100 U/ml rhu GM-CSF and 50 ng/ml rhu SLF. For both types of assays, colonies were scored after 14 day incubation in a humidified atmosphere with 5% CO2 and lowered (5%) O2 tension. Cell cycling status of progenitors was measured using a high specific activity tritiated thymidine kill technique as previously described (Broxmeyer, H. E., et al., Exp. Hematol. (1989) 17:455-459).

## c1cc(CN2CCCNCCNCCCNCC2)ccc1CN1CCCNCCNCCCNCC1 [AMD3100, 1,1′-[1,4-phenylene-bis(methylene)]-bis-1,4,8,11-tetraazacyclotetradecane]
P1, T = 1 hour
  Cycling Status of Progenitors, BFU-E: 0%
  Cycling Status of Progenitors, CFU-GEMM: 0%
  Cycling Status of Progenitors, CFU-GM: 1%
P1, T = 3 hours
  Cycling Status of Progenitors, BFU-E: 13%
  Cycling Status of Progenitors, CFU-GEMM: 7%
  Cycling Status of Progenitors, CFU-GM: 1%
P1, T = 6 hours
  Cycling Status of Progenitors, BFU-E: 0%
  Cycling Status of Progenitors, CFU-GEMM: 0%
  Cycling Status of Progenitors, CFU-GM: 0%
P1, T = 9 hours
  Cycling Status of Progenitors, BFU-E: 11%
  Cycling Status of Progenitors, CFU-GEMM: 0%
  Cycling Status of Progenitors, CFU-GM: 2%
P1, T = 24 hours
  Cycling Status of Progenitors, BFU-E: 0%
  Cycling Status of Progenitors, CFU-GEMM: 0%
  Cycling Status of Progenitors, CFU-GM: 0%
P2, T = 1 hour
  Cycling Status of Progenitors, BFU-E: 3%
  Cycling Status of Progenitors, CFU-GEMM: 6%
  Cycling Status of Progenitors, CFU-GM: 0%
P2, T = 3 hours
  Cycling Status of Progenitors, BFU-E: 0%
  Cycling Status of Progenitors, CFU-GEMM: 0%
  Cycling Status of Progenitors, CFU-GM: 2%
P2, T = 6 hours
  Cycling Status of Progenitors, BFU-E: 0%
  Cycling Status of Progenitors, CFU-GEMM: 0%
  Cycling Status of Progenitors, CFU-GM: 0%
P2, T = 9 hours
  Cycling Status of Progenitors, BFU-E: 0%
  Cycling Status of Progenitors, CFU-GEMM: 4%
  Cycling Status of Progenitors, CFU-GM: 0%
P2, T = 24 hours
  Cycling Status of Progenitors, BFU-E: 2%
  Cycling Status of Progenitors, CFU-GEMM: 0%
  Cycling Status of Progenitors, CFU-GM: 3%
P3, T = 1 hour
  Cycling Status of Progenitors, BFU-E: 0%
  Cycling Status of Progenitors, CFU-GEMM: 0%
  Cycling Status of Progenitors, CFU-GM: 0%
P3, T = 3 hours
  Cycling Status of Progenitors, BFU-E: 0%
  Cycling Status of Progenitors, CFU-GEMM: 0%
  Cycling Status of Progenitors, CFU-GM: 1%
P3, T = 6 hours
  Cycling Status of Progenitors, BFU-E: 0%
  Cycling Status of Progenitors, CFU-GEMM: 0%
  Cycling Status of Progenitors, CFU-GM: 0%
P3, T = 9 hours
  Cycling Status of Progenitors, BFU-E: 0%
  Cycling Status of Progenitors, CFU-GEMM: 0%
  Cycling Status of Progenitors, CFU-GM: 0%
P3, T = 24 hours
  Cycling Status of Progenitors, BFU-E: 0%
  Cycling Status of Progenitors, CFU-GEMM: 0%
  Cycling Status of Progenitors, CFU-GM: 0%
P4, T = 1 hour
  Cycling Status of Progenitors, BFU-E: 0%
  Cycling Status of Progenitors, CFU-GEMM: 0%
  Cycling Status of Progenitors, CFU-GM: 0%
P4, T = 3 hours
  Cycling Status of Progenitors, BFU-E: 9%
  Cycling Status of Progenitors, CFU-GEMM: 0%
  Cycling Status of Progenitors, CFU-GM: 5%
P4, T = 6 hours
  Cycling Status of Progenitors, BFU-E: 0%
  Cycling Status of Progenitors, CFU-GEMM: 8%
  Cycling Status of Progenitors, CFU-GM: 0%
P4, T = 9 hours
  Cycling Status of Progenitors, BFU-E: 0%
  Cycling Status of Progenitors, CFU-GEMM: 0%
  Cycling Status of Progenitors, CFU-GM: 0%
P4, T = 24 hours
  Cycling Status of Progenitors, BFU-E: 3%
  Cycling Status of Progenitors, CFU-GEMM: 0%
  Cycling Status of Progenitors, CFU-GM: 5%
P5, T = 1 hour
  Cycling Status of Progenitors, BFU-E: 0%
  Cycling Status of Progenitors, CFU-GEMM: 0%
  Cycling Status of Progenitors, CFU-GM: 0%
P5, T = 3 hours
  Cycling Status of Progenitors, BFU-E: 3%
  Cycling Status of Progenitors, CFU-GEMM: 0%
  Cycling Status of Progenitors, CFU-GM: 5%
P5, T = 6 hours
  Cycling Status of Progenitors, BFU-E: 1%
  Cycling Status of Progenitors, CFU-GEMM: 0%
  Cycling Status of Progenitors, CFU-GM: 0%
P5, T = 9 hours
  Cycling Status of Progenitors, BFU-E: 0%
  Cycling Status of Progenitors, CFU-GEMM: 0%
  Cycling Status of Progenitors, CFU-GM: 0%
P5, T = 24 hours
  Cycling Status of Progenitors, BFU-E: 0%
  Cycling Status of Progenitors, CFU-GEMM: 0%
  Cycling Status of Progenitors, CFU-GM: 0%
